Data as given in PubChem BioAssay AID1259254 (NCATS, 2017).

Purpose: 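Genome-wide screen for genes that prevent DNA re-replication in cancer cells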 (primary screen)
System: human HCT116 colorectal cancer cells
Knock-down reagent: single siRNA against human genes
Timing: 3 days
Read-out: 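Nuclei stained with Hoechst and imaged; cell-cycle phase assigned by DNA content; G2 share scaled per plate, non-targeting siRNA 0%, GMNN siRNA 100%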
Scale: G2 robust z-score: higher = more G2 cells, more excess DNA replication
Active means: 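An siRNA counts as active if its G2 robust z-score lies at least 5 MADs above the screen median; here such calls match roughly 38% of GMNN control or more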
The deposit covers about 59,000 reagents; this is a part drawn at random. About 1,550 of all reagents (2.6%) count as active. 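G2 share is only a proxy for re-replication; each gene was hit by three separate siRNAs, and active genes were retested.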 Reagents against one gene are numbered here. Not all columns of the deposit are shown. Not stated in the record: the amount of reagent.

Gene | siRNA no. | G2 robust z-score | Call
APOBEC3C | 1 | -0.201 | inactive
APOBEC3C | 2 | 3.34 | inactive
APOBEC3C | 3 | -0.435 | inactive
ZNF449 | 1 | -0.57 | inactive
ZNF449 | 2 | 0.492 | inactive
ZNF449 | 3 | -0.739 | inactive
CLTC | 1 | 0.984 | inactive
CLTC | 2 | 1.05 | inactive
CLTC | 3 | 0.868 | inactive
MPDZ | 1 | -0.629 | inactive
MPDZ | 2 | -0.451 | inactive
MPDZ | 3 | 0.619 | inactive
LINC00683 | 1 | -0.575 | inactive
LINC00683 | 2 | -0.853 | inactive
LINC00683 | 3 | -0.619 | inactive
IVD | 1 | -1.33 | inactive
IVD | 2 | 1.76 | inactive
IVD | 3 | 0.488 | inactive
SULT1C4 | 1 | -1.25 | inactive
SULT1C4 | 2 | 0.826 | inactive
SULT1C4 | 3 | -1.05 | inactive
FAM43A | 1 | -0.665 | inactive
FAM43A | 2 | -0.393 | inactive
FAM43A | 3 | -0.684 | inactive
SLC30A9 | 1 | 5.34 | active
SLC30A9 | 2 | -1.07 | inactive
SLC30A9 | 3 | -0.67 | inactive
CACNA1I | 1 | 5.54 | active
CACNA1I | 2 | -0.592 | inactive
CACNA1I | 3 | 0.116 | inactive
ZSCAN31 | 1 | -1.77 | inactive
ZSCAN31 | 2 | -0.419 | inactive
ZSCAN31 | 3 | 1.1 | inactive
ANKRD42 | 1 | -0.176 | inactive
ANKRD42 | 2 | -0.456 | inactive
ANKRD42 | 3 | 0.515 | inactive
STX8 | 1 | -0.781 | inactive
STX8 | 2 | -1.27 | inactive
STX8 | 3 | 2.84 | inactive
PRR22 | 1 | 0.512 | inactive
PRR22 | 2 | -0.39 | inactive
PRR22 | 3 | -0.558 | inactive
TMEM18 | 1 | -0.077 | inactive
TMEM18 | 2 | 0.729 | inactive
TMEM18 | 3 | -1.28 | inactive
VSX1 | 1 | 6.7 | active
VSX1 | 2 | -0.0887 | inactive
VSX1 | 3 | 1.02 | inactive
GRB10 | 1 | -0.873 | inactive
GRB10 | 2 | -0.166 | inactive
GRB10 | 3 | 4.07 | inactive
CENPC | 1 | 0.288 | inactive
CENPC | 2 | -1 | inactive
CENPC | 3 | 0.31 | inactive
MAS1 | 1 | -1.01 | inactive
MAS1 | 2 | 0.746 | inactive
MAS1 | 3 | 0.821 | inactive
MAGEA11 | 1 | -0.734 | inactive
MAGEA11 | 2 | 0.595 | inactive
MAGEA11 | 3 | -0.341 | inactive
KAAG1 | 1 | -0.417 | inactive
KAAG1 | 2 | 0.223 | inactive
KAAG1 | 3 | 0.447 | inactive
BMPR1B | 1 | -1.08 | inactive
BMPR1B | 2 | -1.13 | inactive
BMPR1B | 3 | -0.681 | inactive
RHOQ | 1 | -0.435 | inactive
RHOQ | 2 | 0.134 | inactive
RHOQ | 3 | -1.24 | inactive

Look-ups from the entries so far.
KAAG1 #2, Call → inactive
Under “Call”, MAS1 #1 reads inactive
STX8 #2, G2 robust z-score: -1.27
Result of CLTC #2 under “Call”: inactive
Under “G2 robust z-score”, CACNA1I #1 is entered as 5.54
APOBEC3C #2, G2 robust z-score = 3.34
